From article doi:10.1101/2025.07.06.663161 (bioRxiv, 2025)
Positions count from the first letter of the chain named. In names and notes the source's numbering stands. No constants are given. Whether binding was seen depends on the method and setting. Some binding calls cover weakened binding; strength is not graded here. Sequences can lack the tags named with a protein.

B1: Recombinant wild-type Cdc19, Strep-tagged (SUMO tag cleaved off) (natural protein)
chain: MSRLERLTSLNVVAGSDLRRTSIIGTIGPKTNNPETLVALRKAGLNIVRMNFSHGSYEYHKSVIDNARKSEELYPGRPLAIALDTKGPEIRTGTTTNDVDYPIPPNHEMIFTTDDKYAKACDDKIMYVDYKNITKVISAGRIIYVDDGVLSFQVLEVVDDKTLKVKALNAGKICSHKGVNLPGTDVDLPALSEKDKEDLRFGVKNGVHMVFASFIRTANDVLTIREVLGEQGKDVKIIVKIENQQGVNNFDEILKVTDGVMVARGDLGIEIPAPEVLAVQKKLIAKSNLAGKPVICATQMLESMTYNPRPTRAEVSDVGNAILDGADCVMLSGETAKGNYPINAVTTMAETAVIAEQAIAYLPNYDDMRNCTPKPTSTTETVAASAVAAVFEQKAKAIIVLSTSGTTPRLVSKYRPNCPIILVTRCPRAARFSHLYRGVFPFVFEKEPVSDWTDDVEARINFGIEKAKEFGILKKGDTYVSIQGFKAGAGHSNTLQVSTV
B2: Recombinant phosphomimicking Cdc19-3E (S56E, S70E, S175E), Strep-tagged (SUMO tag cleaved off) (natural protein)
chain: B1 chain with S56E, S70E, S175E

Columns and labels:
[1] = biological target: GFP-tagged wild-type Cdc19 (pyruvate kinase Cdc19) (S. cerevisiae) (UniProt P00549); experiment: semi-denaturing detergent agarose gel electrophoresis
[2] = biological target: GFP-tagged phosphomimicking Cdc19-3E (S56E, S70E, S175E) (S. cerevisiae) (UniProt P00549); experiment: SEC

| Binder | binding [1] | binding [2] |
| --- | --- | --- |
| B1 | binds | – |
| B2 | – | binds |
